Literature values as cited in patent US5714499A, “3-amino-2-oxo-1-piperidineacetic derivatives containing an arginine mimic as enzyme inhibitors” (Corvas International, Inc., priority 1994, dated 1998).
At least one structure is not confirmed: it was looked up by name or label, or the drawing left a doubt.

System: thrombin
Conditions: literature; cited from earlier work

CCOC(=O)c1ccc(OC(=O)CCCCCNC(=N)N)cc1 [FOY, [Ethyl p-(6-guanidinohexanoyloxy) benzoate] methane sulfonate]
selectivity of thrombin inhibition: non-selective competitive inhibitor of thrombin
